Data taken from PMC7795690.
Numbering of substitutions follows the chain as printed. Results are given in words; binding and its absence hold for the method and conditions named. In cells and extracts the contact can be indirect. Some binding calls cover weakened binding; strength is not graded here.

Protein sequences, listed by entry. Tags and fused reporters are not part of them.
UniProt Q9NP97: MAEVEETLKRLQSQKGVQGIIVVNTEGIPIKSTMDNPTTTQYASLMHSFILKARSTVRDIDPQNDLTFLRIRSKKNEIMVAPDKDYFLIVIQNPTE
UniProt Q9Y266: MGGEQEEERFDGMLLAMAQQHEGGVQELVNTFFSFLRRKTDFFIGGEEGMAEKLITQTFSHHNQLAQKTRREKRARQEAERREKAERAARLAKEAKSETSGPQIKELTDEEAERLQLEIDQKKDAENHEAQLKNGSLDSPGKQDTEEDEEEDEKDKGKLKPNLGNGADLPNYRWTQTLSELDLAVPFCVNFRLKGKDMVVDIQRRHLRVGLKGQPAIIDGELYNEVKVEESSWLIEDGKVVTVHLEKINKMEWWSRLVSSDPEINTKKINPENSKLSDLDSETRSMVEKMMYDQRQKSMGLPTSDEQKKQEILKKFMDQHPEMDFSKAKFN
UniProt P62628: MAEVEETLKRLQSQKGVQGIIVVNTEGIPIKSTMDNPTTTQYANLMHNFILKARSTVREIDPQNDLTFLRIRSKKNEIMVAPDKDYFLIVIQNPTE
UniProt Q63525: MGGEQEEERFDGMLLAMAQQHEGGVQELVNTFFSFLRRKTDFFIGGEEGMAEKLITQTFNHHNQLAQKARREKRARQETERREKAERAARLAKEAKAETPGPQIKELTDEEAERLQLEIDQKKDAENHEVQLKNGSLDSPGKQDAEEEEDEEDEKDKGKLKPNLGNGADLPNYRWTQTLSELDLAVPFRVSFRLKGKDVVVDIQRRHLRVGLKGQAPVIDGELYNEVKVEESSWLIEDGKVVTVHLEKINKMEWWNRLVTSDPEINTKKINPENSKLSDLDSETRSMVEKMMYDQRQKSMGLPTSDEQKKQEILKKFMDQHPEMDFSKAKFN
UniProt Q9UJ70: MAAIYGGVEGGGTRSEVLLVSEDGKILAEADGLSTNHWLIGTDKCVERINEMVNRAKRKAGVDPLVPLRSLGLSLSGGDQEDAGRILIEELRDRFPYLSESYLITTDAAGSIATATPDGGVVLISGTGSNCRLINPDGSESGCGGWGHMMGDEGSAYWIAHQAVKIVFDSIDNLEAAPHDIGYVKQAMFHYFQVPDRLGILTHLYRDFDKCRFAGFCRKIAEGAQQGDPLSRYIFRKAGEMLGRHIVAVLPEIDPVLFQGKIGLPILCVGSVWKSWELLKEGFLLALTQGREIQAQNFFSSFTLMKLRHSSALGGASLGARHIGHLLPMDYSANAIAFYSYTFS
UniProt P81799: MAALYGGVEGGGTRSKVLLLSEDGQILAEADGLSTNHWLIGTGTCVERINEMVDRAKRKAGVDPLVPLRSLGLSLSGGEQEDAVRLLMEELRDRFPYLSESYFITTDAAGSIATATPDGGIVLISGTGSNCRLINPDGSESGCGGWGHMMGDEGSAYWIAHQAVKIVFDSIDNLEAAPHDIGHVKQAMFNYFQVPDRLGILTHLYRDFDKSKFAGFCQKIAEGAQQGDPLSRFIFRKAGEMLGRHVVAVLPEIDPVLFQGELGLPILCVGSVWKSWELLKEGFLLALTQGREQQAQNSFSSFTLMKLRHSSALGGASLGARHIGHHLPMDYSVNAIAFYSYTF
UniProt Q9Y6G9: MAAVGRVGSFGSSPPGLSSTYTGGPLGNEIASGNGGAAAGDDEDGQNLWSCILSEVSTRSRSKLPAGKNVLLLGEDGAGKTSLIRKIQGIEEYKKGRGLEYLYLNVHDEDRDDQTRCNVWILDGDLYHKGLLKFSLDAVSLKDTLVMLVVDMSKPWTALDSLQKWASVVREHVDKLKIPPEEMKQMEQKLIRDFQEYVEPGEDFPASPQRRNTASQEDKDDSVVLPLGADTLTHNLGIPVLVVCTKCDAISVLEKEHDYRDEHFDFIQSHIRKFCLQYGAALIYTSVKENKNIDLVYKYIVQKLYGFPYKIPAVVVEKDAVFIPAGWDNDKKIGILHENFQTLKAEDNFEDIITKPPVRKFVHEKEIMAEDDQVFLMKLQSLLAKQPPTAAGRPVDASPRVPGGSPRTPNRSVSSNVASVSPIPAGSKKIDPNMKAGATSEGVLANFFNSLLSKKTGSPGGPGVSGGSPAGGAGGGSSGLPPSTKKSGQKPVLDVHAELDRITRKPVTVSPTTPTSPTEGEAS

Legend:
[1] = target: dynein light chain roadblock type 1 (DYNLRB1), endogenous in HEK293T cells (human (endogenous in HEK293T)) (UniProt Q9NP97); test: proximity ligation; in situ PLA (Duolink) with primary antibodies to the two endogenous proteins in fixed migrating HEK293T cells (wound-healing, 48 h post-scratching), followed by ICC for a third protein
[2] = target: T1, lissencephaly 1 (Lis1), endogenous in HEK293T cells (human (endogenous in HEK293T)) (UniProt P43034); test: as above
T1 sequence: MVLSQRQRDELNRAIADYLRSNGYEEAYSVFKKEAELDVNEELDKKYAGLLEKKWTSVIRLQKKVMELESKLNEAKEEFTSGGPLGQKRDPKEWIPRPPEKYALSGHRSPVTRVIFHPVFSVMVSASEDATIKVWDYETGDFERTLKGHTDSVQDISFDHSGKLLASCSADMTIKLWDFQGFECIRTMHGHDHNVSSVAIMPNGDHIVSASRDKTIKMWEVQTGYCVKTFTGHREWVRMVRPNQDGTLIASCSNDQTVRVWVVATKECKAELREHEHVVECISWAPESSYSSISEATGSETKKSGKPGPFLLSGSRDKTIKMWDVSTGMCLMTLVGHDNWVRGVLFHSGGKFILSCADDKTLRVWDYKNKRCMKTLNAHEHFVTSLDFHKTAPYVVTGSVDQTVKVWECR

[3] = target: nuclear distribution protein C (NudC), endogenous in HEK293T cells (human (endogenous in HEK293T)) (UniProt Q9Y266); test: as above
His-tagged NudC = His-tagged NudC (UniProt Q9Y266); test: pull-down; Ni-NTA magnetic resin pull-down of His-tagged NudC from lysate of transfected HEK293T cells (48 h; 25 mM Tris, 150 mM NaCl, 1.0 mM EDTA, 1% NP-40, 5% glycerol, pH 7.4); immunoblot of the elution
[4] = target: dynein light chain roadblock type 1 (DYNLRB1), endogenous in rat migrating neurons (rat (endogenous in neurons from E14 rat cortex)) (UniProt P62628); test: proximity ligation; in situ PLA (Duolink) with primary antibodies to the two endogenous proteins in fixed cultured rat neurons migrating from E14 neurospheres, followed by ICC for a third protein
[5] = target: T2, lissencephaly 1 (Lis1), endogenous in rat migrating neurons (rat (endogenous in neurons from E14 rat cortex)) (UniProt P63004); test: as above
T2 sequence: T1 sequence with V39M

[6] = target: nuclear distribution protein C (NudC), endogenous in rat migrating neurons (rat (endogenous in neurons from E14 rat cortex)) (UniProt Q63525); test: as above

## N-acetylglucosamine kinase (NAGK), endogenous in HEK293T cells (from UniProt Q9UJ70 1-344)
[1]
  binding: binds
[2]
  binding: binds
[3]
  binding: binds
His-tagged NudC
  binding: binds

## N-acetylglucosamine kinase (NAGK), endogenous in rat migrating neurons (from UniProt P81799 1-343)
[4]
  binding: binds
[5]
  binding: binds
[6]
  binding: binds

## dynein light chain roadblock type 1 (DYNLRB1), endogenous in HEK293T cells (from UniProt Q9NP97 1-96)
His-tagged NudC
  binding: binds

## dynein light intermediate chain 1 (DYNC1LI1), endogenous in HEK293T cells (from UniProt Q9Y6G9 1-523)
His-tagged NudC
  binding: binds
